PubChem BioAssay AID540276 (National Center for Advancing Translational Sciences (NCATS), 2011)
Among all 300,000 compounds or so, about 5,400 (1.8%) were called active. The shares of active, inactive and inconclusive entries below differ from those in the screen. Calls follow the shape of the full dose curve; tested in HEK293 cells. Potencies beside an inconclusive call are fits to weak or partial responses and may not hold up.

assay: qHTS for inhibitors of binding or entry into cells for Marburg Virus; conditions: Marburg virus pseudotyped entry inhibition, cell reporter; series mostly up to 37.8 µM
Potency is read from the fitted curve at half-maximal effect.

SMILES | Potency
CN(C(=O)Cc1c(C(=O)O)n(C)c2ccccc12)c1ccc(Cl)cc1 | inconclusive: 5.62 µM [inhibitor, single point]
O=c1c2sccc2nc(SCc2cc(=O)n3ccccc3n2)n1-c1ccc(Br)cc1 | inconclusive: 10 µM [inhibitor, partial curve]
Cc1cc2nc3c(c(=O)n2[nH]1)CCCC3 | inactive
COc1ccc(C2=NN3C(C2)c2ccccc2OC3c2cccs2)cc1 (stereo unspecified) | inconclusive: 1.12 µM [activator, full curve, poor fit]
Cc1ccccc1OCC(=O)Nc1nc(-c2ccncc2)cs1 | inconclusive: 35.5 µM [inhibitor, single point]
COc1ccc(NC(=O)CSc2nnc(Cc3ccccc3)o2)c(OC)c1 | inconclusive: 0.0052 µM [inhibitor, full curve, poor fit]
COc1ccc(C2c3ccc4ccccc4c3Oc3ncn(CCCO)c(=N)c32)cc1OC (stereo unspecified) | inconclusive: 11.2 µM [inhibitor, partial curve, poor fit]
Cc1cccc(NC(=O)C(=O)NCCCc2ccccc2)c1 | inconclusive: 8.2 µM [activator, partial curve, poor fit]
CC(C)c1ccccc1NC(=O)COC(=O)C1(C)CC1(Cl)Cl (stereo unspecified) | inconclusive: 10 µM [inhibitor, partial curve, poor fit]
COc1ccc(N2CCN(C(=O)c3ccc4c(c3)N(Cc3cc(C)ccc3C)C(=O)c3ccccc3S4=O)CC2)cc1 (stereo unspecified) | inconclusive: 20 µM [inhibitor, partial curve, poor fit]
COc1ccc(-c2nnc(SCC(=O)/C(C#N)=C(\C)N)o2)cc1 | inconclusive: 6.51 µM [inhibitor, partial curve, poor fit]
CCc1ccccc1NC(=O)/C(=C/c1ccco1)c1ccccc1 | inconclusive: 7.94 µM [inhibitor, partial curve, poor fit]
COc1ccc(C2c3ccc4ccccc4c3Oc3ncn(CCN4CCOCC4)c(=N)c32)cc1 (stereo unspecified) | inconclusive: 20.6 µM [inhibitor, single point]
Nc1c(-c2cccs2)cnc2c(-c3ccc(F)cc3)cnn12 | inconclusive: 1.26 µM [activator, partial curve, poor fit]
COc1cc2c(cc1NC(=O)CSc1nnnn1-c1ccccc1)oc1ccccc12 | inconclusive: 17.8 µM [inhibitor, single point]
COc1ccc(Cl)cc1NC(=O)CNC(c1ccccc1)c1ccccc1 | inconclusive: 6.31 µM [inhibitor, partial curve, poor fit]
COc1ccc(-c2nc(NC(=O)c3c(C)noc3C)sc2C)cc1 | inactive
CC(OC(=O)CNC(=O)c1ccco1)C(=O)Nc1ccc(Cl)cn1 (stereo unspecified) | inconclusive: 2.82 µM [inhibitor, partial curve, poor fit]
Cc1ccc(-c2cc(C(=O)N/N=C/c3ccc([N+](=O)[O-])o3)c3ccccc3n2)o1 | inconclusive: 25.1 µM [inhibitor, single point]
COc1cc(C)ccc1OCCCCOc1ccccc1C(C)=O | inconclusive: 31.6 µM [inhibitor, partial curve, poor fit]
CCCCC(=O)Nc1ccccc1N1CCN(c2ccc(F)cc2)CC1 | active: 11.2 µM
COc1ccc(C(=O)N/N=C(\C)c2cccc(NC(=O)c3ccc(F)cc3)c2)c(OC)c1 | inactive

SMILES | Potency
COc1ccc(S(=O)(=O)N2CCCCCC2)cc1C(=O)N(C)Cc1ccc(F)cc1 | inconclusive: 10 µM [inhibitor, partial curve]
Cc1c(N(C)C(=O)C2CCCN2S(=O)(=O)c2ccccc2)c(=O)n(-c2ccccc2)n1C (stereo unspecified) | inactive
CC(C)(C)c1ccc(C(=O)Nc2cccc3ncccc23)cc1 | inconclusive: 12.6 µM [inhibitor, single point]
Cc1cccc(-n2cnc(C(=O)O)c2)n1 | inactive
O=S(=O)(c1ccc2ccccc2c1)N1CCN(Cc2ccccn2)CC1 | inconclusive: 7.94 µM [activator, partial curve, poor fit]
CC(=O)Nc1cccc(NC(=S)Nc2cccc(Cl)c2Cl)c1 | inactive
Cc1c(-c2nc(N)nc(Nc3ccc(F)cc3)n2)oc2ccccc12 | inconclusive: 20 µM [inhibitor, single point]
Cc1cccc(NC(=O)CCCC(=O)OC(C)C(=O)c2ccccc2)c1 (stereo unspecified) | inconclusive: 3.16 µM [activator, single point]
COc1ccc(NC(=O)N(Cc2cccs2)Cc2cc3cc4c(cc3[nH]c2=O)OCO4)cc1 | inactive
CC(=O)c1c(C)oc(C)c1CSCc1ccc(C(=O)O)o1 | inconclusive: 8.2 µM [inhibitor, partial curve, poor fit]
CCCN1CCCc2cc(CN)ccc21 | inactive
C=CCC(c1ccccc1F)N(CCN1CCOCC1)C(=O)Nc1cccc(Cl)c1 (stereo unspecified) | inconclusive: 8.2 µM [inhibitor, partial curve, poor fit]
O=C(c1cccs1)N1CCN(c2ccc(Cl)cc2)CC1 | inconclusive: 35.5 µM [inhibitor, single point]
CCc1ccc(C2=NN(c3ccc(S(N)(=O)=O)cc3)C(c3ccc(F)cc3)C2)cc1 (stereo unspecified) | inconclusive: 35.5 µM [inhibitor, single point]
Cc1ccc(Cl)cc1N1CCN(C(=O)c2cn(CC(C)C)c(=O)c3c2c2ccccc2n3C)CC1 | inconclusive: 10 µM [inhibitor, partial curve, poor fit]
CCOC(=O)NC(=O)CSc1nnc(SCCC(=O)O)s1 | inconclusive: 2.82 µM [activator, single point]
Cc1ccccc1C(=O)Nc1cccc(C(=O)N/N=C/c2ccc3c(c2)OCO3)c1 | inactive
COc1ccc(C=O)cc1CSc1ncccc1C(=O)O | inconclusive: 12.6 µM [activator, single point]
Cc1ccc(S(=O)(=O)N(C)C)cc1NC(=O)COC(=O)Cc1ccc(Br)cc1 | inconclusive: 31.6 µM [activator, single point]
COc1ccc(CNc2nc(-c3ccco3)nn2C(=O)CC(C)C)cc1 | inconclusive: 2.24 µM [activator, partial curve, poor fit]
COc1cc(C(=O)NNC(=O)Cc2ccc(S(=O)(=O)N3CCOCC3)s2)cc(OC)c1OC | inconclusive: 0.794 µM [activator, single point]
CCn1c(N2CCN(C(=O)Nc3ccc(F)cc3)CC2)nc2ccccc21 | inactive

Among those listed so far, these have an NH in an aromatic ring.
SMILES | Potency
Cc1cc2nc3c(c(=O)n2[nH]1)CCCC3 | inactive
COc1ccc(NC(=O)N(Cc2cccs2)Cc2cc3cc4c(cc3[nH]c2=O)OCO4)cc1 | inactive

Laid out differently: two of the compounds above.
SMILES	Potency
CCc1ccc(C2=NN(c3ccc(S(N)(=O)=O)cc3)C(c3ccc(F)cc3)C2)cc1 (stereo unspecified)	inconclusive: 35.5 µM [inhibitor, single point]
Cc1ccccc1C(=O)Nc1cccc(C(=O)N/N=C/c2ccc3c(c2)OCO3)c1	inactive

Following part

SMILES | Potency
Cc1nc2c(ncn2-c2ccccc2)c(=O)n1NC(=O)CN1CCN(C)CC1 | inconclusive: 3.55 µM [activator, single point]
Cc1cccnc1NC(=S)NC(=O)c1cccs1 | inconclusive: 0.291 µM [activator, partial curve, poor fit]
O=C(NCc1ccccn1)Nc1ccc2c(c1)OCO2 | inactive
Cc1cc(S(=O)(=O)n2ccnc2C(C)C)cc([N+](=O)[O-])c1C | inactive
O=c1c2ccccc2nc2n1C(CBr)CS2 (stereo unspecified) | inconclusive: 2.59 µM [inhibitor, full curve, poor fit]
CCCNc1ccc(-c2nc(-c3ccco3)no2)cc1[N+](=O)[O-] | inconclusive: 7.08 µM [activator, single point]
CC1CC(C)(O)CC(C(O)CC2CC(=O)NC(=O)C2)C1=O (stereo unspecified) | active: 0.1 µM
O=C(O)CCC(=O)N1N=C(c2ccccc2)CC1c1ccc2nccnc2c1 (stereo unspecified) | inconclusive: 0.1 µM [activator, full curve, poor fit]
CCOc1ccccc1/C=C(/NC(=O)c1ccccc1)C(=O)NCC(=O)O | inconclusive: 12.6 µM [activator, single point]
c1ccc(-c2ccc(-c3cn4c(n3)CCC4)cc2)cc1 | active: 7.08 µM
O=C(NC1=NCCS1)c1csc2ccccc12 | inactive
COc1ccc(N=C2SCC(c3ccc(C)cc3)=NN2CCO)cc1 | inconclusive: 12.6 µM [inhibitor, single point]
Cc1ccc(N(Cc2ccco2)C(=O)c2ccc(N3CCCCC3)c([N+](=O)[O-])c2)cc1 | active: 23.1 µM
CCOC(=O)C(=NCCCN1CCOCC1)NNc1cccc(C(F)(F)F)c1 | inconclusive: 12.6 µM [inhibitor, single point]
CC(C)N(CCO)C(=O)CCc1nnc(CCCc2ccccc2)o1 | inconclusive: 35.5 µM [activator, single point]
COc1cc(C(=O)OCC(=O)NCc2ccccc2)cc(NC(=O)c2ccco2)c1OC | inconclusive: 6.31 µM [inhibitor, single point]
COCCCNc1oc(/C=C/c2ccccc2)nc1C#N | inconclusive: 15.8 µM [inhibitor, single point]
CSCCC(NC(=O)c1ccco1)C(=O)Nc1cc(C)ccn1 (stereo unspecified) | inconclusive: 5.62 µM [activator, single point]
CCc1cccc(C)c1Nc1c(-c2ccc(N3CCOCC3)cc2)nc2ncccn12 | inactive
O=C(Nc1ccccc1C(F)(F)F)c1noc2c1CCCCC2 | inconclusive: 3.16 µM [activator, partial curve, poor fit]
COc1ccc(-c2ccc(SCC(=O)N3CC(=O)Nc4ccccc43)nn2)cc1 | inconclusive: 0.891 µM [inhibitor, partial curve, poor fit]
Cc1cccn2c(=O)c3cc(C(=O)NC4CCCCCC4)sc3nc12 | inconclusive: 0.562 µM [activator, full curve, poor fit]
